Source: patent US20220144937A1 (JIANGSU HENGRUI MEDICINE, published 2022)
These are yes or no findings as the source states them, for the method shown. Some entries that bind do so weakly or less than the wild type.

Molecular target: T1, human IL-5 with his-tag (rhIL-5-his) (human, UniProt P05113 20-134)
T1 sequence: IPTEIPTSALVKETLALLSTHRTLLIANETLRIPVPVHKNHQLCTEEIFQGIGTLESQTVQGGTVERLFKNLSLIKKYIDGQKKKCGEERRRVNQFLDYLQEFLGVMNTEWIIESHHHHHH
Experiment: Biacore
Protocol: The affinity of the murine IL-5 antibody to be tested with human IL-5 was measured by Biacore T200 (GE) instrument.
The protein A biosensor chip was used to affinity capture of the molecules to be tested, and then the antigen (recombinant human and cyno IL-5 prepared in Example 1) flowed through the surface of the chip, and the reaction signal was detected in real time with the Biacore T200 instrument to obtain the binding and dissociation curves. After the dissociation of each experimental cycle was completed, the biosensor chip was washed and regenerated with glycine-hydrochloric acid regeneration solution (pH 1.5). BIA evaluation version 4.1 GE software was used to fit the data against (1:1) Langmuir model, and the affinity value was obtained and shown in Table 13.

B1: h1779-014 (antibody, human IgG1, kappa, V domains shown)
VH: EVQLVQSGAEVKKPGASVKVSCKASGYTFTDYIIHWVKQAPGQGLEWIGYFNPNSGGSNYNENFKRKATMTADKSISTAYLEFSRLRSEDTAVYYCARRIAWDHWYFDFWGQGTMVTVSS
VL: DIQMTQSPSSLSASVGDRVTITCLASEGISNDVAWYQQKPGKSPKLLVYAASRLQDGVPSRFSGSGSGTDYTFTISSLQPEDIATYYCQQGYKTPLTFGQGTKLEIKR
notes: See recheck
  binding: binds
